Data on nine substances can be found in publication PMC7558522 (Pharmaceutics, 2020).

For part of these data: Some peptides are written in HELM: one residue between dots, names in brackets for other building blocks, links after the first $. The star is where a group is joined. Pbf = Cc1c(C)c(S(=O)(=O)*)c(C)c2c1OC(C)(C)C2; Dde = CC(=C1C(=O)CC(C)(C)CC1=O)*; Boc = CC(C)(C)OC(=O)*; OAll = C=CCO*

Data set [1] is described as follows: general procedure: Fmoc solid-phase peptide synthesis; H-Arg(Pbf)-2-chlorotrityl resin (0.58 meq/g, 100–200 mesh); HBTU/DIPEA. The following applies: for step yield: late stage modification step; for cyclisation yield: cyclisation step; for crude mass / crude yield: whole synthesis.

With “[K-W(Boc)-R(Pbf)-W(Boc)-R(Pbf)-W(Boc)-R(Pbf)-W(Boc)-R(Pbf)]”, the step yield in data set [1] is recorded as 93%.
On to “PEPTIDE1{K.W.R.W.R.K.W.R.W.R}|PEPTIDE2{[KSuc].W.R.W.R.W.R.W.R}|PEPTIDE3{[KSuc].W.R.W.R.W.R.W.R}$PEPTIDE1,PEPTIDE1,1:R1-10:R2|PEPTIDE2,PEPTIDE2,1:R1-9:R2|PEPTIDE3,PEPTIDE3,1:R1-9:R2|PEPTIDE1,PEPTIDE2,1:R3-1:R3|PEPTIDE1,PEPTIDE3,6:R3-1:R3$$$V2.0”, for which the step yield in “peptide synthesis” (late stage modification step) turned out to be 78%. Besides, the difficulty met entry in the data set “peptide synthesis” (whole synthesis) is “synthesized tricyclic [(WR)4]3 after two unsuccessful synthetic strategies”.
“[D-W(Boc)-R(Pbf)-W(Boc)-R(Pbf)-K(Dde)-W(Boc)-R(Pbf)-W(Boc)-R(Pbf)]” had a step yield in data set [1] of 69%.
In data set [1], “[D(OAll)-W(Boc)-R(Pbf)-W(Boc)-R(Pbf)-K(Dde)-W(Boc)-R(Pbf)-W(Boc)-R(Pbf)]” yielded a cyclisation yield of 91%.
Substance “[K(COCH2CH2COOH)-W(Boc)-R(Pbf)-W(Boc)-R(Pbf)-W(Boc)-R(Pbf)-W(Boc)-R(Pbf)]” yielded a step yield in data set [1] of 98%.
As to “H-D(OAll)W(Boc)R(Pbf)W(Boc)R(Pbf)K(Dde)W(Boc)R(Pbf)W(Boc)R(Pbf)-OH”, in data set [1] (scale 0.58 mmol), the crude mass stood at 460 mg and the crude yield turned out to be 24%.
“[D(OAll)-W(Boc)-R(Pbf)-W(Boc)-R(Pbf)-K-W(Boc)-R(Pbf)-W(Boc)-R(Pbf)]”: the step yield in data set [1] was 65%.
The substance “[K(Dde)-W(Boc)-R(Pbf)-W(Boc)-R(Pbf)-W(Boc)-R(Pbf)-W(Boc)-R(Pbf)]” displayed a cyclisation yield in data set [1] of 88%.
In the case of “H-K(Dde)W(Boc)R(Pbf)W(Boc)R(Pbf)K(Dde)W(Boc)R(Pbf)W(Boc)R(Pbf)-OH”, the crude mass in data set [1] (scale 0.58 mmol) was 432 mg. In data set [1] (scale of the general procedure 0.58 mmol), this substance gave a crude yield of 22%.
